Laboratory results taken from paper PMC8724216, “Biochemical and structural characterization of beta-carbonic anhydrase from the parasite Trichomonas vaginalis” (Journal of Molecular Medicine (Berlin, Germany), 2021).

Molecular target: T1, TvaCA2 (Trichomonas vaginalis, UniProt A2DLG4)
T1 construct: gene TVAG_268150; recombinant in E. coli BL21 Star (DE3), pBVboostFG; 6xHis-tag removed by thrombin; 185 residues; homodimer, zinc
T1 sequence (A2DLG4 1-184): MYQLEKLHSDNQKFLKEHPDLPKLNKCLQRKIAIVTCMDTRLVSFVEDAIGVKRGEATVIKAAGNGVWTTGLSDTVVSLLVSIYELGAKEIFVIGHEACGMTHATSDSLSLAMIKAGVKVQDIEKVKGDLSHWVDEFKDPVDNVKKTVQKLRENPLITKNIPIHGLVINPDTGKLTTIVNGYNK
Assay: stopped-flow CO2 hydration, phenol red
Assay type: biochemical
Conditions: read-out: TvaCA2 β

Ki [nM] | Structure (SMILES)
223 | CC(=O)Nc1nnc(S(N)(=O)=O)s1 [AAZ, acetazolamide]
1700 | CCN[C@H]1C[C@H](C)S(=O)(=O)c2sc(S(N)(=O)=O)cc21 [DZA]
